Data: paper PMC11132878
No constants are given. Whether binding was seen depends on the method and setting. In cells and extracts the contact can be indirect. Some results given as binding are weak or reduced against the parent protein; the word gives no strength. Tags and fused reporters may be left off the sequences shown.

T1: GST-CHR24-ATPase (Arabidopsis thaliana) (UniProt Q8W103)
T1 sequence: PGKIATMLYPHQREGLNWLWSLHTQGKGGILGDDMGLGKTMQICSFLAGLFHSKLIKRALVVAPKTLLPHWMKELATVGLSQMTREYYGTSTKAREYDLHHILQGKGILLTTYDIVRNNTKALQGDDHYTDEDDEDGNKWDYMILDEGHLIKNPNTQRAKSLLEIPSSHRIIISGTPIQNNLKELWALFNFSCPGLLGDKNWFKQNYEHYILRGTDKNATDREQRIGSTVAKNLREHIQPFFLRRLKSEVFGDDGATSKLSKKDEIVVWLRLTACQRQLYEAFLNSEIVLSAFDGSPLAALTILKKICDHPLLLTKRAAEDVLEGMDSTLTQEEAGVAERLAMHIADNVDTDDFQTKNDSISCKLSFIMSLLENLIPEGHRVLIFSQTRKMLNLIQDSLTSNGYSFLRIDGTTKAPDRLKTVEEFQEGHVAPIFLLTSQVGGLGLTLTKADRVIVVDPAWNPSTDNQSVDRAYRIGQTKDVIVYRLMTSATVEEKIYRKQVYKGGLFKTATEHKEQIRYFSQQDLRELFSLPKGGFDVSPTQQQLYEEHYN

T2: FLAG-Apn1 (yeast) (UniProt P22936)
T2 sequence: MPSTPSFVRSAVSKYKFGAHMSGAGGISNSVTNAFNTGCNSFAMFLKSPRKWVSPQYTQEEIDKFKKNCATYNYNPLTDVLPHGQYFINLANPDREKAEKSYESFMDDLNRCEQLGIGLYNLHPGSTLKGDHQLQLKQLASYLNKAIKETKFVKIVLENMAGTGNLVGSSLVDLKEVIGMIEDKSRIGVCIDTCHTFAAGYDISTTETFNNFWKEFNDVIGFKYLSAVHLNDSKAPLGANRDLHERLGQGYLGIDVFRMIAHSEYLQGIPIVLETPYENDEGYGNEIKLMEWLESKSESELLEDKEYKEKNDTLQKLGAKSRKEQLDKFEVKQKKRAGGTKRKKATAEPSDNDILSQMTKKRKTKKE

T3: HA-Rad26 (yeast) (UniProt P40352)
T3 sequence: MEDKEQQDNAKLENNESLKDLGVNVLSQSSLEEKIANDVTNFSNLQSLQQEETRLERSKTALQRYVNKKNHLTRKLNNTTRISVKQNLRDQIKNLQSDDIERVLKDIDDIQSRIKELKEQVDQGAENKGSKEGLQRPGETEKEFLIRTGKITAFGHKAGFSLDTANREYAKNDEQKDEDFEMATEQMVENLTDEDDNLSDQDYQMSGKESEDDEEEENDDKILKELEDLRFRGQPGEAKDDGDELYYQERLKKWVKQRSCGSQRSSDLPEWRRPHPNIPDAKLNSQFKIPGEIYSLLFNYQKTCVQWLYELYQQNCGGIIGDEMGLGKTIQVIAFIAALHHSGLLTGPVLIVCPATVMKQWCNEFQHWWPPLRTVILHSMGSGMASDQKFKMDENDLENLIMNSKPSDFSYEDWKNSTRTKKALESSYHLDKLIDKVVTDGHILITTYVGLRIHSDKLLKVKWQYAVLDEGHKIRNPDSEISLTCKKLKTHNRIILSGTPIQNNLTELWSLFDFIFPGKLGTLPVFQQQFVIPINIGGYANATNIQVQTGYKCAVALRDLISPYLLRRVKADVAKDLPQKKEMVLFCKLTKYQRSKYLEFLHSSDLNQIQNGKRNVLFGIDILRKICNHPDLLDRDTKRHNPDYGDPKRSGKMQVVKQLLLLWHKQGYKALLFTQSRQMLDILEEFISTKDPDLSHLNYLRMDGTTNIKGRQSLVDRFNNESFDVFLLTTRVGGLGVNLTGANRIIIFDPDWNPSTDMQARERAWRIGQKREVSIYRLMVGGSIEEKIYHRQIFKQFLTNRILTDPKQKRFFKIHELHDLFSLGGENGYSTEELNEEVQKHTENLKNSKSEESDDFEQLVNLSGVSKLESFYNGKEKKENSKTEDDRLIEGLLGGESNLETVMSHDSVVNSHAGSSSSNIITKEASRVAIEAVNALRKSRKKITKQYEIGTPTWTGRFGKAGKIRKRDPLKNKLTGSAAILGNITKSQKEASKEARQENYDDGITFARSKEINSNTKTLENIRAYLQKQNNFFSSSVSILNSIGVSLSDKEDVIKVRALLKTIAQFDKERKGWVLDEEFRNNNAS


Experiments:
[1] = target: T1, GST-CHR24-ATPase (Arabidopsis thaliana); test: pull-down; GST-tagged truncated CHR24 proteins on glutathione-sepharose 4B beads, plant extracts; detection with antibody against GFP (YFP-NAP1;2) or MYC (MYC-ARP); only the target purified
FLAG-Apn1 (yeast) [2] = target: T2, FLAG-Apn1 (yeast); test: co-IP; FLAG-Apn1, Nap1-MYC and HA-Rad26 co-expressed in yeast apn1Δ nap1Δ rad26Δ cells; co-IP buffer 50 mM Tris–HCl pH 7.8, 100 mM NaCl, 5 mM MgCl2, 10% glycerol, 0.05% NP-40, 1 mM DTT; IP with or without antibodies against FLAG, HA and MYC
FLAG-Apn1 (yeast) [3] = target: T2, FLAG-Apn1 (yeast); test: co-IP; pairwise co-IP validation of Apn1, Nap1 and Rad26 in yeast with negative controls (Supplementary Fig. S14)
HA-Rad26 (yeast) [4] = target: T3, HA-Rad26 (yeast); test: co-IP; FLAG-Apn1, Nap1-MYC and HA-Rad26 co-expressed in yeast apn1Δ nap1Δ rad26Δ cells; co-IP buffer 50 mM Tris–HCl pH 7.8, 100 mM NaCl, 5 mM MgCl2, 10% glycerol, 0.05% NP-40, 1 mM DTT; IP with or without antibodies against FLAG, HA and MYC
HA-Rad26 (yeast) [5] = target: T3, HA-Rad26 (yeast); test: co-IP; pairwise co-IP validation of Apn1, Nap1 and Rad26 in yeast with negative controls (Supplementary Fig. S14)

binding [1]	binding (FLAG-Apn1 (yeast) [2])	binding (FLAG-Apn1 (yeast) [3])	binding (HA-Rad26 (yeast) [4])	binding (HA-Rad26 (yeast) [5])	Binder
binds					MYC-tagged ARP (MYC-ARP) (enzyme, UniProt P45951 1-536) MNNVLQFGLQSSAIYVAKFLVVPLRSLRVGSSFVGVGVGTRSFNKRLMSNATAFSINNSKRKELKIPGAAIDQNCHQMGSDTDRDEMGTLQDDRKEIEAMTVQELRSTLRKLGVPVKGRKQELISTLRLHMDSNLPDQKETSSSTRSDSVTIKRKISNREEPTEDECTNSEAYDIEHGEKRVKQSTEKNLKAKVSAKAIAKEQKSLMRTGKQQIQSKEETSSTISSELLKTEEIISSPSQSEPWTVLAHKKPQKDWKAYNPKTMRPPPLPEGTKCVKVMTWNVNGLRGLLKFESFSALQLAQRENFDILCLQETKLQVKDVEEIKKTLIDGYDHSFWSCSVSKLGYSGTAIISRIKPLSVRYGTGLSGHDTEGRIVTAEFDSFYLINTYVPNSGDGLKRLSYRIEEWDRTLSNHIKELEKSKPVVLTGDLNCAHEEIDIFNPAGNKRSAGFTIEERQSFGANLLDKGFVDTFRKQHPGVVGYTYWGYRHGGRKTNKGWRLDYFLVSQSIAANVHDSYILPDINGSDHCPIGLILKL
	binds	binds			HA-Rad26 (enzyme, UniProt P40352 1-1085) MEDKEQQDNAKLENNESLKDLGVNVLSQSSLEEKIANDVTNFSNLQSLQQEETRLERSKTALQRYVNKKNHLTRKLNNTTRISVKQNLRDQIKNLQSDDIERVLKDIDDIQSRIKELKEQVDQGAENKGSKEGLQRPGETEKEFLIRTGKITAFGHKAGFSLDTANREYAKNDEQKDEDFEMATEQMVENLTDEDDNLSDQDYQMSGKESEDDEEEENDDKILKELEDLRFRGQPGEAKDDGDELYYQERLKKWVKQRSCGSQRSSDLPEWRRPHPNIPDAKLNSQFKIPGEIYSLLFNYQKTCVQWLYELYQQNCGGIIGDEMGLGKTIQVIAFIAALHHSGLLTGPVLIVCPATVMKQWCNEFQHWWPPLRTVILHSMGSGMASDQKFKMDENDLENLIMNSKPSDFSYEDWKNSTRTKKALESSYHLDKLIDKVVTDGHILITTYVGLRIHSDKLLKVKWQYAVLDEGHKIRNPDSEISLTCKKLKTHNRIILSGTPIQNNLTELWSLFDFIFPGKLGTLPVFQQQFVIPINIGGYANATNIQVQTGYKCAVALRDLISPYLLRRVKADVAKDLPQKKEMVLFCKLTKYQRSKYLEFLHSSDLNQIQNGKRNVLFGIDILRKICNHPDLLDRDTKRHNPDYGDPKRSGKMQVVKQLLLLWHKQGYKALLFTQSRQMLDILEEFISTKDPDLSHLNYLRMDGTTNIKGRQSLVDRFNNESFDVFLLTTRVGGLGVNLTGANRIIIFDPDWNPSTDMQARERAWRIGQKREVSIYRLMVGGSIEEKIYHRQIFKQFLTNRILTDPKQKRFFKIHELHDLFSLGGENGYSTEELNEEVQKHTENLKNSKSEESDDFEQLVNLSGVSKLESFYNGKEKKENSKTEDDRLIEGLLGGESNLETVMSHDSVVNSHAGSSSSNIITKEASRVAIEAVNALRKSRKKITKQYEIGTPTWTGRFGKAGKIRKRDPLKNKLTGSAAILGNITKSQKEASKEARQENYDDGITFARSKEINSNTKTLENIRAYLQKQNNFFSSSVSILNSIGVSLSDKEDVIKVRALLKTIAQFDKERKGWVLDEEFRNNNAS
	binds	binds	binds	binds	Nap1-MYC (protein, UniProt P25293 1-417) MSDPIRTKPKSSMQIDNAPTPHNTPASVLNPSYLKNGNPVRAQAQEQDDKIGTINEEDILANQPLLLQSIQDRLGSLVGQDSGYVGGLPKNVKEKLLSLKTLQSELFEVEKEFQVEMFELENKFLQKYKPIWEQRSRIISGQEQPKPEQIAKGQEIVESLNETELLVDEEEKAQNDSEEEQVKGIPSFWLTALENLPIVCDTITDRDAEVLEYLQDIGLEYLTDGRPGFKLLFRFDSSANPFFTNDILCKTYFYQKELGYSGDFIYDHAEGCEISWKDNAHNVTVDLEMRKQRNKTTKQVRTIEKITPIESFFNFFDPPKIQNEDQDEELEEDLEERLALDYSIGEQLKDKLIPRAVDWFTGAALEFEFEEDEEEADEDEDEEEDDDHGLEDDDGESAEEQDDFAGRPEQAPECKQS
